Measured values reported in patent US20220213186A1.
Results are given in words; binding and its absence hold for the method and conditions named. Some results given as binding are weak or reduced against the parent protein; the word gives no strength.

Target: T1, Lrig-1 protein (leucine-rich and immunoglobulin-like domains 1) expressed on the surface of L cells (human) (UniProt Q96JA1)
T1 sequence: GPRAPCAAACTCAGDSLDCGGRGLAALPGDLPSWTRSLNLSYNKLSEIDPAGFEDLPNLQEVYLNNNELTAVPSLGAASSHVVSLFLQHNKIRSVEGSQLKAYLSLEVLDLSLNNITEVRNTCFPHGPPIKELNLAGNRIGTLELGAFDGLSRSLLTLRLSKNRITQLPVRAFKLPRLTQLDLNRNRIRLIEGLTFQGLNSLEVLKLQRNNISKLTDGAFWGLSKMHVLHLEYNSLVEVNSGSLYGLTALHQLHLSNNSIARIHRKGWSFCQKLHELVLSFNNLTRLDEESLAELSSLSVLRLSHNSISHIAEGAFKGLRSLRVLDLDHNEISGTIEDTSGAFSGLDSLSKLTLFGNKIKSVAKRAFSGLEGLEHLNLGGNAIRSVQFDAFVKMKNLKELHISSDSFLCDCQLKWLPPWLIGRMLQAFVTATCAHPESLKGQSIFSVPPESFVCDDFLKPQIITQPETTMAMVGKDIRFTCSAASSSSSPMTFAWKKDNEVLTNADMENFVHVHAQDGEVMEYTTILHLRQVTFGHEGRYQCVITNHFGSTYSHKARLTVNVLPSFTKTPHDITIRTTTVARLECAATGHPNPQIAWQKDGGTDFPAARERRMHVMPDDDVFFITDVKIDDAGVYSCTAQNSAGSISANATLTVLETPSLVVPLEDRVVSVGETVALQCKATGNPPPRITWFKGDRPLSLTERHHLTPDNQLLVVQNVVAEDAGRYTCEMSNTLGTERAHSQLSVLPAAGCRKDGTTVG
Assay: FACS on L cells stably expressing Lrig-1, eFluor 670 anti-mouse secondary antibody

| binding | Binder |
| --- | --- |
| binds | GTC110-04 clone (Production Example 8), Lrig-1 protein-specific monoclonal antibody (antibody, mouse IgG2a, V domains shown) VH: EVQLLESGGGLVQPGGSLRLSCAASGFTFSNYAMSWVRQAPGKGLEWVSVISHGGGSTYYADSVKGRFTISRDNSKNTLYLQMNSLRAEDTAVYYCARVISNCHLGVCYYSNGMDVWGQGTLVTVSS VL: QSVLTQPPSASGTPGQRVTISCSGSSSNIGNNDVYWYQQLPGTAPKLLIYSDSQRPSGVPDRFSGSKSGTSASLAISGLRSEDEADYYCGTWDYSLSGYVFGGGTKLTVLR |
| binds | GTC210-01 clone (Production Example 1), Lrig-1 protein-specific monoclonal antibody (antibody, mouse IgG2a, V domains shown) VH: EVQLLESGGGLVQPGGSLRLSCAASGFTFSGYDMSWVRQAPGKGLEWVSLIYPDSGNKYYADSVKGRFTISRDNSKNTLYLQMNSLRAEDTAVYYCARDAGLSWAGAFDYWGQGTLVTVSS VL: QSVLTQPPSASGTPGQRVTISCSGSSSNIGSNYVTWYQQLPGTAPKLLIYSDSHRPSGVPDRFSGSKSGTSASLAISGLQSEDEADYYCGSWDYSLSAYVFGGGTKLTVLR |
